Consider one molecule from patent US20040023313A1 (Amgen, published 2004).

These are yes or no findings as the source states them, for the method shown. Some binding calls cover weakened binding; strength is not graded here.

The target in experiment [1] is T1, CHO human OPGL (hOPGL) 140 (human, UniProt O14788 140-317).
T1 construct: also called CHO hOPGL 140
T1 sequence (looked up): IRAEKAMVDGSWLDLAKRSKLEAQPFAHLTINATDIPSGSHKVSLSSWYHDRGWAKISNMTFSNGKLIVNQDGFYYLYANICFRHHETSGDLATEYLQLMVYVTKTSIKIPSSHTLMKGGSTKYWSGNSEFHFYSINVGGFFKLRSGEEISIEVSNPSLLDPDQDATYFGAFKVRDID
The experiment in a line: SPR (BIAcore 2000), antibody captured on Protein G. Background: SPR reads the build-up and loss of mass on a sensor chip optically.

The target in experiment [2] is purified recombinant OPGL from CHO cells or E. coli (immunogen and ELISA coat of Example 1) (Homo sapiens (Human)) (UniProt O14788). The experiment can be described thus: ELISA, plate coated with purified recombinant OPGL. Background: ELISA stands for enzyme-linked immunosorbent assay.

B1: 22B3 anti-OPGL antibody (antibody, human IgG1, kappa, V domains shown)
VH: EVQLVQSGGGLVHPGGSLRLSCEGSGFTFSSNGMHWVRQTPGKGLEWVSGIGTAGGTYYADSVKGRFTISRDNVKKSLYLQMNSLRAEDMAIYYCVRKNWGWFDPWGQGALVTVSS
VL: EIVLTQSPATLSLSPGERATLSCRASQSVNSYLAWFQQKPGQAPRLLIYDASNRATGIPARFSGSGSGTDFTLTISSLEPEDFAIYYCQQRSNWPPFTFGQGTKLEIKR
notes: Fully human IgG1 kappa from HuMab mice
With B1, the binding result in experiment [1] and in experiment [2] was “binds” each time.
